# Measurements published in PubChem BioAssay AID540276 (National Center for Advancing Translational Sciences (NCATS), 2011).
# Among all 300,000 compounds or so, about 5,400 (1.8%) were called active. Inconclusive means that the source gave no clear call. Such entries were picked first, then a sample of the others. Calls come from the whole dose curve; tested in HEK293 cells. A potency beside an inconclusive call is a rough fit, not a confirmed value.
# Test: qHTS for inhibitors of binding or entry into cells for Marburg Virus
# Conditions: Marburg virus pseudotyped entry inhibition, cell reporter; series mostly up to 37.8 µM
# Potency is the fitted concentration of half-maximal effect.
row,Compound,Potency
1,Cc1cc(N2CC(C)OC(C)C2)n2cc(-c3ccccc3)nc2n1 (stereo unspecified),inactive
2,CCOc1ccc(S(=O)(=O)N2CCN(C(=O)c3cc(-c4ccccc4)nn3-c3ccccc3)CC2)cc1,"inconclusive: 35.5 µM [inhibitor, single point]"
3,Cc1cccc(C)c1OCC(=O)Nc1cccc(NC(=O)c2ccco2)c1,"inconclusive: 35.5 µM [inhibitor, single point]"
4,Cc1cc(C)n2c(=O)[nH]nc2c1,inactive
5,COc1cc(C(=S)N2CCOCC2)cc(OC)c1O,inactive
6,O=P(Nc1ccccc1Cl)(c1ccccc1)c1nc2c(s1)CCCC2 (stereo unspecified),"inconclusive: 0.82 µM [inhibitor, partial curve, poor fit]"
7,O=C1CCCN2N=C(SCC(=O)Nc3ccc([N+](=O)[O-])cc3)SC2=N1,"inconclusive: 5.01 µM [inhibitor, full curve, poor fit]"
8,CC(=O)N1CCN(c2nc3cc4c(cc3nc2NS(=O)(=O)c2ccccc2)OCCO4)CC1,inactive
9,CCOC(=O)C1=C(C)NC(=O)CC1c1cc(OC)c(OC)cc1Br (stereo unspecified),inactive
10,O=C(NC(c1ccccc1)c1cc(Cl)c2cccnc2c1O)c1cccnc1 (stereo unspecified),inactive
11,Cc1ccc(C2CC(c3ccccc3)n3ncnc3N2)cc1 (stereo unspecified),inactive
12,CCCCCNC(=O)Cc1ccc(OC)cc1,"inconclusive: 3.16 µM [activator, single point]"
13,COc1cc(OC)cc(C(=O)Nc2nc(CC(=O)NCc3ccccc3OC)cs2)c1,"inconclusive: 20 µM [inhibitor, single point]"
14,COc1cccc(C(C(=O)NC2CCCC2)N(C(=O)c2ccco2)C2CC2)c1OC (stereo unspecified),inactive
15,COc1ccccc1NS(=O)(=O)c1cccc(NC(=O)Nc2cccc(Cl)c2)c1,"inconclusive: 29.1 µM [inhibitor, single point]"
16,Cc1ccc(OCC(=O)Nc2ccc(CN3CCOCC3)cc2)cc1,"inconclusive: 11.2 µM [activator, partial curve, poor fit]"
17,CC1CN(C(=O)CSc2nc(-c3ccccc3)cs2)CC(C)O1 (stereo unspecified),"inconclusive: 1 µM [inhibitor, single point]"
18,Cc1ccccc1NC(=S)N(CCc1c(C)[nH]c2ccc(F)cc12)Cc1ccncc1,"inconclusive: 1.26 µM [inhibitor, full curve, poor fit]"
19,O=C1c2ccccc2S(=O)(=O)N1CC(O)COc1ccc(Cl)cc1 (stereo unspecified),"inconclusive: 35.5 µM [activator, single point]"
20,Cc1sc2nc(SCC(=O)Nc3cccc(C(=O)O)c3)[nH]c(=O)c2c1C,inactive
21,CN1CCN(C(=O)c2cc(-c3cccc(Cl)c3)on2)CC1,"inconclusive: 35.5 µM [activator, single point]"
22,COc1ccc(-c2cc(C(=O)Nc3ccc(C#N)cc3)no2)cc1,inactive
23,COc1ccc(NC(=O)c2cc(=O)c3ccccc3o2)cn1,"inconclusive: 0.316 µM [inhibitor, full curve, poor fit]"
24,O=C1CN(C(=O)CN2CCCCC2)C(c2ccccc2)c2cc(Br)ccc2N1 (stereo unspecified),"inconclusive: 29.1 µM [inhibitor, single point]"

# Structures listed so far with a furan ring, fused or not, in the order listed:
row,Compound,Potency
3,Cc1cccc(C)c1OCC(=O)Nc1cccc(NC(=O)c2ccco2)c1,"inconclusive: 35.5 µM [inhibitor, single point]"
14,COc1cccc(C(C(=O)NC2CCCC2)N(C(=O)c2ccco2)C2CC2)c1OC (stereo unspecified),inactive

# Remaining list, next part.

row,Compound,Potency
1,COc1cccc2c1OC[C@@H](CO)[C@H]2N(C)C(=O)Nc1ccc(Cl)cc1Cl,inactive
2,O=C(CCNC(=O)c1ccc(Cl)cc1)NC1CCCCCC1,inactive
3,COC1=C[C@@H](C(=O)N[C@H]2CCCC[C@H]2NC(C)=O)[C@@H](C)[C@H](c2ccccc2)CC1=O,"inconclusive: 1.19 µM [activator, single point]"
4,COc1ccc(NC(=O)CCCCC(=O)Nc2ccc(OC)cc2OC)c(OC)c1,"inconclusive: 6.31 µM [inhibitor, partial curve, poor fit]"
5,O=C(NCc1ccc2c(c1)OCO2)C1CCCN1C(=O)Nc1cccc(F)c1 (stereo unspecified),inactive
6,NS(=O)(=O)c1ccc(NC(=O)Cn2nc(C(=O)O)c3ccccc3c2=O)cc1,inactive
7,O=C(c1cc(Cl)ccc1[N+](=O)[O-])n1cnc2ccccc21,"inconclusive: 2.82 µM [activator, partial curve, poor fit]"
8,COc1cc(NC(=O)Nc2cc(C)on2)cc(OC)c1OC,inactive
9,Cc1ccccc1C(=O)N1CCC(C(=O)Nc2cc(C(F)(F)F)ccc2N2CCCC2)CC1,inactive
10,COc1ccccc1NC(=O)C1=C(C)Nc2nc(CCCO)nn2C1c1cccnc1 (stereo unspecified),"inconclusive: 1.26 µM [inhibitor, full curve]"
11,CC(Nc1oc(-c2ccco2)nc1C#N)c1ccccc1 (stereo unspecified),"inconclusive: 5.62 µM [inhibitor, partial curve, poor fit]"
12,COc1ccccc1-c1cc2ccccc2[nH]1,inactive
13,COc1ccccc1NC(=O)c1sc2nc(C)c(C(=O)Nc3ccc(Cl)cc3)c(-c3ccc(Br)cc3)c2c1N,"inconclusive: 8.91 µM [inhibitor, partial curve, poor fit]"
14,Cc1ccc(C)c(N2CCN(CC3CC=CCC3)CC2)c1 (stereo unspecified),"inconclusive: 6.51 µM [inhibitor, full curve, poor fit]"
15,COc1ccc(C2/C(=C(/O)c3ccc4c(c3)CC(C)O4)C(=O)C(=O)N2Cc2ccncc2)cc1 (stereo unspecified),"inconclusive: 5.62 µM [inhibitor, partial curve, poor fit]"
16,O=C(CCc1c[nH]c2ccccc12)N1CCN(c2ccc(O)cc2)CC1,"inconclusive: 1.12 µM [inhibitor, full curve]"
17,COc1ccc(C2c3[nH]c4ccccc4c3CCN2CCCn2cccn2)c(F)c1 (stereo unspecified),"inconclusive: 35.5 µM [inhibitor, single point]"
18,COc1ccc(OC)c(C(=O)c2ccc(C(=O)Nc3ccc(NC(C)=O)cc3)cc2)c1,"inconclusive: 35.5 µM [inhibitor, single point]"
19,CC1CCN(S(=O)(=O)N2CCN(C(=O)c3ccc4c(c3)OCO4)CC2)CC1,"inconclusive: 35.5 µM [activator, single point]"
20,CC(C)Cc1ccc(C#N)c(SCC(N)=O)n1,inactive
21,CC(C)C(C(=O)NCc1ccco1)N(C(=O)CNS(=O)(=O)c1ccccc1)C1CCCC1 (stereo unspecified),"inconclusive: 0.708 µM [activator, partial curve, poor fit]"
22,CC(=O)c1ccc2c(c1)C1C=CCC1C(C(=O)O)N2 (stereo unspecified),"inconclusive: 17.8 µM [inhibitor, single point]"
23,CCC(C)C(=O)Nc1ccccc1N1CCN(c2ccc(F)cc2)CC1 (stereo unspecified),active: 12.6 µM
24,NC(=O)CSc1nnnn1-c1cccc(Cl)c1,inactive

# Pulled by compound from above (2):
row,Compound,Potency
9,CCOC(=O)C1=C(C)NC(=O)CC1c1cc(OC)c(OC)cc1Br (stereo unspecified),inactive
22,COc1ccc(-c2cc(C(=O)Nc3ccc(C#N)cc3)no2)cc1,inactive

# (listing goes on)

row,Compound,Potency
1,O=C(NCc1ccccc1F)C12CC3CC(CC(C3)C1)C2,inactive
2,Fc1ccccc1-n1ncc2c1ncn1nc(COc3ccc(Cl)cc3)nc21,inactive
3,Cc1cc(C)cc(OCC(=O)NC(C)c2ccccc2)c1 (stereo unspecified),"inconclusive: 7.94 µM [inhibitor, partial curve]"
4,O=C(CF)N(O)c1ccc(C=Cc2ccccc2)cc1,active: 1 µM
5,Cc1ccc(NC(=O)CS(=O)CC(=O)N(c2ccccc2F)C(C)C(=O)NC2CCCC2)cc1 (stereo unspecified),"inconclusive: 35.5 µM [inhibitor, single point]"
6,CC1(C)CC(CNCCC(c2ccc(F)cc2)c2ccco2)CCO1 (stereo unspecified),"inconclusive: 35.5 µM [inhibitor, single point]"
7,CC(=O)NCc1ccc(C(=O)CCl)s1,active: 4.47 µM
8,CCn1c(COc2ccccc2C(N)=O)nc2ccccc21,inactive
9,CC(=O)Nc1ccc(Nc2nc3ccc(Cl)cc3n3cnnc23)cc1,"inconclusive: 5.62 µM [inhibitor, single point]"
10,Cc1cc(Br)ccc1NC(=O)CN1C(=O)C2C3CC(c4ccccc4)C(C3)C2C1=O (stereo unspecified),"inconclusive: 35.5 µM [inhibitor, single point]"
11,Clc1ccccc1CN(Cc1ccccc1)C(c1cccs1)c1nnnn1C1CCCC1 (stereo unspecified),"inconclusive: 12.6 µM [inhibitor, partial curve, poor fit]"
12,Cn1cnnc1SCC(=O)Nc1ccc2nc(SCc3cccc4ccccc34)sc2c1,"inconclusive: 7.08 µM [inhibitor, full curve, poor fit]"
13,CC(=O)Nc1ccc(S(=O)(=O)NC2(C(F)(F)F)C(=O)NC(C)=C2C#N)cc1 (stereo unspecified),"inconclusive: 6.31 µM [inhibitor, single point]"
14,O=C1N=C2C=CC=CC2N1CCCN1CCC(N2C(=O)N=C3C=C(Cl)C=CC32)CC1 (stereo unspecified),"inconclusive: 14.6 µM [inhibitor, partial curve]"
15,COC(=O)N[C@@H](c1ccc2ccccc2c1)C(C(C)=O)C(=O)OC (stereo partly specified),inactive
16,COc1ccc(C(=O)Nc2ccc(S(=O)(=O)N(C)c3ccccc3)cc2)cc1,"inconclusive: 11.2 µM [inhibitor, partial curve, poor fit]"
17,CC(Cc1ccccc1)C(=O)NCc1ccccn1 (stereo unspecified),"inconclusive: 0.146 µM [activator, full curve, poor fit]"
18,Cc1ccc(C(=O)N2CCCCC2)cc1S(=O)(=O)N1CCCCCC1,inactive
19,COC(=O)N/N=C/c1ccc(-c2cc(Cl)ccc2Cl)o1,inactive
20,O=C(CC1(O)C(=O)N(CCc2ccccc2)c2ccc(Br)cc21)c1ccccc1 (stereo unspecified),"inconclusive: 10 µM [inhibitor, partial curve, poor fit]"
21,C=CCC(NCc1ccccc1)c1ccc(Cl)cc1 (stereo unspecified),"inconclusive: 18.4 µM [inhibitor, single point]"
22,O=C(C1CCN(S(=O)(=O)c2ccc(-n3cnnn3)cc2)CC1)N1CCN(c2ccccc2)CC1,"inconclusive: 17.8 µM [inhibitor, single point]"
23,COc1cc(C)c(CNC2CCCCC2)cc1C,"inconclusive: 7.3 µM [inhibitor, partial curve, poor fit]"
